Results published in PubChem BioAssay AID504834 (National Center for Advancing Translational Sciences (NCATS), 2011).
The whole screen tested about 320,000 compounds, of which about 22,000 (6.9%) were called active. The shares of active, inactive and inconclusive entries below differ from those in the screen. The call rests on the fitted dose curve; in most records, active means well fitted inhibition curve with a large enough effect; inconclusive means small, poorly fitted or top-dose-only effect, or another doubt; inactive means no such curve, though single readings can be large or run the other way. Potencies of inconclusive entries are doubtful fits and often do not repeat.

Test: Primary qHTS for delayed death inhibitors of the malarial parasite plastid, 96 hour incubation
Settings: P. falciparum luciferase reporter growth; series mostly up to 28.7 µM; activity change, negative = inhibition: at the top concentration
In short: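 Two-generation exposure (96 h) targets delayed-death phenotype. Reporter parasites carrying integrated firefly luciferase, in red cells at 2% hematocrit and 0.05% parasitemia final, kept at 37 C, 5% CO2; luminescence loss indicates inhibition.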
On the % scale 0 is the no-effect control and ±100 the full control effect; potency means the concentration at half of the fitted maximal effect.

| Structure (SMILES) | activity change, negative = inhibition | Potency |
| --- | --- | --- |
| CCn1cc(C(=O)NCCC(=O)NC(C)C)c(=O)c2cc3c(cc21)OCO3 | inactive: 1.92% | – |
| O=C1NC(=S)NC(=O)C1=Cc1ccc2c(c1)CCN2CCCCl | inactive: 46.3% | – |
| Cc1ccc2nc3sc(C(=O)Nc4ccc(F)cc4)cc3cc2c1 | – | inconclusive: 0.37 µM [inhibitor, full curve, poor fit] |
| CCc1cc(=O)oc2cc(C)cc(OCC(=O)NC3CCN(Cc4ccccc4)CC3)c12 | – | inconclusive: 9.28 µM [inhibitor, single point] |
| Cc1cc2c(cc1S(=O)(=O)N1CCN(c3ccccc3F)CC1)OCC(=O)N2 | – | inconclusive: 18.5 µM [inhibitor, single point] |
| CCn1c(SCC(=O)N(C)Cc2ccc(OC)c(F)c2)nc2cc(S(N)(=O)=O)ccc21 | – | inconclusive: 13.1 µM [inhibitor, partial curve, poor fit] |
| Cc1ccc2cc(CN(Cc3ccco3)C(=O)c3ccco3)c3nnnn3c2c1 | – | inconclusive: 14.7 µM [inhibitor, single point] |
| O=C(c1cc(-c2ccc(Cl)c(Cl)c2)on1)N1CCCCCC1 | inactive: 266% | – |
| N#C/C(=C\C=C\c1ccccc1)c1nc(-c2ccc3c(c2)OCO3)cs1 | – | inconclusive: 13.1 µM [inhibitor, single point] |
| c1ccc2c(c1)[nH]c1c(N3CCSCC3)ncnc12 | inactive: 7.92% | – |
| COc1cccc(C(C(=O)NC2CCCCC2)N(C(=O)CNC(=O)c2ccco2)c2cccnc2)c1 (stereo not drawn) | – | inconclusive: 14.7 µM [inhibitor, single point] |
| O=C(Nc1ccc(F)cc1)c1ccc2[nH]c(=O)c(=O)[nH]c2c1 | inactive: 6.22% | – |
| Cc1nc(-c2ccc(NS(=O)(=O)c3ccccc3)cc2)cs1 | inactive: 34.5% | – |
| NC(=O)C(=O)NCCCN1CCOCC1 | – | inconclusive: 0.738 µM [inhibitor, full curve, poor fit] |
| CCN(CC)CCNC(=O)CS(=O)Cc1nc(-c2ccc(C)cc2)oc1C (stereo not drawn) | – | inconclusive: 0.262 µM [inhibitor, full curve, poor fit] |
| Cc1cccc(NC(=O)c2cccc(NC(=O)c3ccccc3)c2)n1 | – | active: 13.1 µM |
| COc1cc(NC(=O)c2cc(-c3ccccc3Cl)on2)cc(OC)c1OC | – | active: 11.7 µM |
| COc1ccc(C)c2sc(N(CCCN(C)C)C(=O)CS(=O)(=O)c3ccc(F)cc3)nc12 | – | inconclusive: 18.5 µM [inhibitor, single point] |
| O=C(CSc1nnc(CNC(=O)c2cccc(C(F)(F)F)c2)o1)NC1CCCCC1 | inactive: -23% | – |
| COc1ccc(-c2c(C#N)c(N)nc3sc(C(=O)c4ccc(C)cc4)c(N)c23)cc1 | – | inconclusive: 8.28 µM [inhibitor, single point] |
| CCOc1ccc(-n2c(Cc3cc(=O)[nH]c(=O)[nH]3)nnc2SCC(=O)Nc2nnc(C)s2)cc1 | inactive: -0.388% | – |
| CN(C)S(=O)(=O)c1cc(NC(=O)CN2CCN(c3ccccc3O)CC2)ccc1Cl | – | inconclusive: 13.1 µM [inhibitor, partial curve, poor fit] |

| Structure (SMILES) | activity change, negative = inhibition | Potency |
| --- | --- | --- |
| CCOC(=O)C(C)Oc1cccc2c(=O)n(CC(=O)NCc3ccco3)ccc12 (stereo not drawn) | – | inconclusive: 0.329 µM [inhibitor, partial curve, poor fit] |
| Cc1ccc(N2CC(C(=O)NCCS(=O)(=O)N3CCN(c4ccc(F)cc4)CC3)CC2=O)cc1 (stereo not drawn) | – | inconclusive: 13.1 µM [inhibitor, partial curve, poor fit] |
| O=C(CCSCc1cccc(F)c1)NCCc1ccccc1 | inactive: -0.404% | – |
| CCC(=O)c1cn(CC(=O)Nc2ccc(C)cc2C)c2ccccc12 | – | inconclusive: 14.7 µM [inhibitor, partial curve, poor fit] |
| CC(Oc1cccc(F)c1)C(=O)/C=C\N(C)C (stereo not drawn) | – | inconclusive: 0.0586 µM [inhibitor, full curve, poor fit] |
| CC(CCc1ccccc1)NC(=O)COC(=O)c1cccn1C (stereo not drawn) | – | inconclusive: 13.1 µM [inhibitor, single point] |
| O=C1NN(c2ccccc2)C(=O)/C1=C\c1ccccc1 | – | inconclusive: 9.28 µM [inhibitor, partial curve] |
| COC(=O)C1=C(C)N=C2SC(C#N)=C(N)N2C1c1cc(OC)c(OC)c(OC)c1 (stereo not drawn) | – | inconclusive: 9.28 µM [inhibitor, single point] |
| COc1ccc(C2Nc3ccccc3C(=O)N2NS(=O)(=O)c2ccc(C)cc2)cc1OC (stereo not drawn) | – | inconclusive: 18.5 µM [inhibitor, single point] |
| CC12CCC(C(=O)Nc3ccccc3Cl)(C(Br)C1=O)C2(C)C (stereo not drawn) | – | inconclusive: 9.28 µM [inhibitor, partial curve, poor fit] |
| C[C@H](NC(=O)c1ccc2ccccc2c1)C(=O)N1CCC2(CC1)NCCc1[nH]cnc12 | inactive: 22.3% | – |
| O=C(Nc1ccccc1)ON=C1CCCC1 | – | inconclusive: 10.4 µM [inhibitor, single point] |
| CC(=O)Nc1ccc(NS(=O)(=O)c2ccc(C)cc2)c([N+](=O)[O-])c1 | – | inconclusive: 3.29 µM [inhibitor, partial curve] |
| CCN(CC)C(=O)Oc1ccccc1NC(C)=O | – | active: 9.28 µM |
| c1ccc(C(c2ccccc2)N2CCN(Cc3nnnn3C3CCCCC3)CC2)cc1 | – | inconclusive: 3.7 µM [inhibitor, full curve, poor fit] |
| COc1cc(NC(=O)[C@H]2CCCN2S(=O)(=O)c2cccc3cccnc23)cc(OC)c1OC | – | inconclusive: 18.5 µM [inhibitor, single point] |
| Cc1ccc(Oc2ccc(S(=O)(=O)N3CCOCC3)cc2C(N)=O)c(-n2nc3ccccc3n2)c1 | – | inconclusive: 11.7 µM [inhibitor, partial curve, poor fit] |
| C#CCOC(=O)C[N+](C)(C)C/C=C/c1ccccc1 | – | inconclusive: 16.5 µM [inhibitor, single point] |
| O=C1/C(=C/c2cccc(F)c2)SC(=S)N1NS(=O)(=O)c1ccccc1 | inactive: 68.3% | – |
| Oc1c(CN2CCOCC2)cc(-c2ccccc2)cc1CN1CCOCC1 | – | inconclusive: 10.4 µM [inhibitor, single point] |
| Cc1ccccc1-c1nc(CS(=O)(=O)CC(=O)NCc2ccco2)c(C)o1 | – | inconclusive: 18.5 µM [inhibitor, single point] |

Looked up above.
For Potency, `Cc1ccc(N2CC(C(=O)NCCS(=O)(=O)N3CCN(c4ccc(F)cc4)CC3)CC2=O)cc1` (stereo not drawn) is entered as inconclusive: 13.1 µM [inhibitor, partial curve, poor fit]
For Potency, `COC(=O)C1=C(C)N=C2SC(C#N)=C(N)N2C1c1cc(OC)c(OC)c(OC)c1` (stereo not drawn) is entered as inconclusive: 9.28 µM [inhibitor, single point]
